According to patent US20170260279A1:
These are yes or no findings as the source states them, for the method shown. Some binding calls cover weakened binding; strength is not graded here.

Assays:
[1] = molecular target: Recombinant Human OX40L (Leader sequence, Isoleucine Zipper and FLAG Sequence Included) (human); assay: SPR (ProteOn XPR36), antibody captured, OX40L at 256 nM; off-rate could not be resolved
[2] = molecular target: Recombinant Rhesus OX40L (Leader Sequence, FLAG and Isoleucine zipper included) (Rhesus (Macaca mulatta)); assay: SPR (ProteOn XPR36), antibody captured, rhesus OX40L at 256 nM; off-rate could not be resolved
[3] = molecular target: Recombinant Human OX40L (Leader sequence, Isoleucine Zipper and FLAG Sequence Included) (human); assay: HTRF receptor neutralisation (grade): antibody titrated against biotinylated hOX40L / OX40R-Fc-AF647

binding [1]: binds
binding [2]: binds
binding [3]: binds
B1: 10A07 (human) (antibody, human IgG4 S228P, kappa, V domains shown)
VH: EVQLVESGGVLVQPGGSLRLSCAASGFTFSSYIMTWVRQAPGKGLEWVSGISGSGGGTYYADSMKGRFTISRDNSKNTLYLQMNSLRVEDTAVYYCAKDRLGPITLVRGGYYYGMDVWGQGTTVTVSS
VL: DIQMTQSPSSLSASVGDRVTITCRASQSISDYLNWYQQKPGKAPKFLIYAASSLQSGVPSRFSGSGSGTDFTLTVSSLQPEDFATYYCQQSYSTPRTFGQGTRVEIKR
